Among the test systems are PKIB (human); PKNOX1 (human); PLAT (human); PLS3 (human); PLXDC1 (human); PMCH (human); POLE3 (human); POLR2I (human); PPM1A (human).
Assay in all cases: protein microarray (ProtoArray v5.0), streptavidin-Alexa Fluor 647
Holding throughout (conditions): 3'-biotin; 20 mM Tris (pH 7.5), 5 mM MgCl2, 100 mM KCl, 0.1% Tween-20, A/T-rich and random oligonucleotide blockers; temperature not stated; high values mean tight binding

Test [1] concerns PNMA-like protein 1 (human).

The other results are listed elsewhere or left out.

With “GGTGACAGGGGTATGGGGAGGGG [G4-2 biotinylated (Ct1)]”, the binding signal was -0.393 z-score with PKIB (human); -0.38 z-score with PKNOX1 (human); -0.372 z-score in the test on PLAT (human); -0.383 z-score in the test with PLS3 (human); -0.382 z-score with PLXDC1 (human); -0.37 z-score in the test on PMCH (human). Further, the binding signal was 3.01 z-score in test [1], -0.394 z-score with POLE3 (human), -0.395 z-score with POLR2I (human) and -0.376 z-score with PPM1A (human).

Values taken from article PMC5996148.
